Tests used:
[1] = Acute gastral ulcerogenity; conditions: rat, in vivo, po
Description: The investigation was in each case carried out on 10 male Sprague-Dawley rats whose gastric mucous membrane had been sensitized by hunger stress. The body weight of the animals was between 200 and 300 g. While allowing free access to the drinking water, the feed was withdrawn 48 hours before administration of the test preparations until sacrifice of the animals. The rats were sacrificed 24 hours after oral administration of the substance, and the stomachs were removed, cleaned under running water and inspected for mucous membrane lesions. All macroscopically visible lesions were regarded as ulcers. The number of animals having ulcers was determined per dose, and this figure was used to calculate, by the method of Litchfield and Wilcoxon (J. Pharmacol. Exp. Ther. 96 (1949), p. 99), the UD50 values, ie. the doses at which lesions were caused in 50% of the animals.

in vivo = conditions: mouse, ip
Description: The LD50 values were determined by standard methods from the mortality occurring within 7 days in NMRI (Naval Medical Research Institute) mice (6 animals per dose) after a single intraperitoneal (i.p.) administration.

Question: With `COc1ccc2cc(C(C)C(=O)O)ccc2c1` (centres unmarked) [naproxen, 2-(6-methoxy2-naphthyl)-propionic acid, reference compound] as the compound, how does the TD50 at 24 h [1] read?
Answer: 23 mg/kg

Question: And the LD50 at 168 h (in vivo)?
Answer: 500 mg/kg

— US4891374A, “Imidazo- and triazolothiadiazines” (Hoechst Aktiengesellschaft, priority 1987, dated 1990)
